At least one compound was matched to its structure with a doubt left. Square brackets hold non-standard residues; d marks the D form. Peptide text beside a SMILES is read from it. Ala(indol-4-yl) = N[C@@H](Cc1cccc2[nH]ccc12)C(=O)O; NMeR = CN[C@@H](CCCNC(=N)N)C(=O)O; Tle = CC(C)(C)[C@H](N)C(=O)O; Dab = NCC[C@H](N)C(=O)O
Tests used:
human NTR1 = biological target: T1, human NTR1 (Homo sapiens, UniProt P30989); assay: Competition binding with [3H]NT, membranes of CHO-K1 cells transfected with human NTR1; details: read-out: Kd hNTR, geometric mean ± SEM
T1 construct: expressed in transfected cells; host or cells: CHO-K1
Procedure: (§1) CHO-K1 cells were stably transfected with nucleic acid encoding either the human NTR1 or the rat NTR1, and cultured in 150 mm petri plates with 35 mL of Dulbecco-modified Eagle's medium containing 100 μM minimal essential medium nonessential amino acids (GIBCO) supplemented with 5% (v/v) FetalClone II bovine serum product (Hyclone Labs, Logan, Utah). CHO cells (subculture 9–19) were harvested at confluency. Briefly, the medium from each plate was removed by aspiration, and the cells washed with 6 mL of 50 mM Tris-HCl (pH 7.4) and resuspended in 5–10 mL of Tris-HCl by scraping the cells with a rubber spatula. The resuspended cells were placed into a centrifuge tube and collected by centrifugation at 300× g for five minutes at 4° C. in a GPR centrifuge (Beckman Instruments, Fullerton, Calif.). The cellular pellet (in 50 mM Tris-HCl, 1 mM EDTA, pH 7.4) was stored at […] until radioligand binding was performed.
(§2) The supernatant was decanted and discarded, and the cellular pellet was resuspended in 2 mL of Tris-HCl, 1 mM EDTA (pH 7.4) followed by homogenization with a Brinkmann Polytron at setting 6 for ten seconds. Centrifugation was repeated as above and the supernatant was decanted and discarded. The resulting final cellular pellet was resuspended in 50 mM Tris-HCl, lmM EDTA, 0.1% bovine serum albumin, and 0.2 mM bacitracin.
(§3) Incubation was at 20° C. for 30 minutes. […]

By UniProt entry, the sequences of proteins in these tests, tags left out.
UniProt P30989, whole entry: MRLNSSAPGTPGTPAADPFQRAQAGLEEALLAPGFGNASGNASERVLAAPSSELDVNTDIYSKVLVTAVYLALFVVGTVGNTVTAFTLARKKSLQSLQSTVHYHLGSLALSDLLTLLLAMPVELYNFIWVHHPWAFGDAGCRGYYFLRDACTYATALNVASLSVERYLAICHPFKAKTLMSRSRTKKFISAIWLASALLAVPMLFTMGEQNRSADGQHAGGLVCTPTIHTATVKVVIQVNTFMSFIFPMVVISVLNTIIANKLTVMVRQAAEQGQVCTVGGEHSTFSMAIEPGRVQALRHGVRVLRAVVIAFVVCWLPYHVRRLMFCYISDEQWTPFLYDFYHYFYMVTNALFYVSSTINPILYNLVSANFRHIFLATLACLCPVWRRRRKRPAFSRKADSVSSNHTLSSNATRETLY
UniProt P20789, whole entry: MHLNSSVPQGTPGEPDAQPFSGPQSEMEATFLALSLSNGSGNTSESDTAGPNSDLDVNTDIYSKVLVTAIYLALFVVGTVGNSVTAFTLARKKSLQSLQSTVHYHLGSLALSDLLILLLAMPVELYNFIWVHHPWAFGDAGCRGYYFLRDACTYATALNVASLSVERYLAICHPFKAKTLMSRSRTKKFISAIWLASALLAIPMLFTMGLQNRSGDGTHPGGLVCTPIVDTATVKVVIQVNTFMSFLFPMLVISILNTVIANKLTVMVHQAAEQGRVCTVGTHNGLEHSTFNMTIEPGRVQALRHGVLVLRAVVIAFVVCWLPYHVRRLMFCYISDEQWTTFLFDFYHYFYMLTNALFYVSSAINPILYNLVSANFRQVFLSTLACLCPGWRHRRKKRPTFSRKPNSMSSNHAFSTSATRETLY

rat NTR1 = biological target: T2, rat NTR1 (Rattus norvegicus, UniProt P20789); assay: Competition binding with [3H]NT, membranes of CHO-K1 cells transfected with rat NTR1; details: read-out: Kd rNTR, geometric mean ± SEM
T2 construct: expressed in transfected cells; host or cells: CHO-K1
Procedure: as §1, §2, §3

Structure (SMILES): CN[C@@H](CCCNC(=N)N)C(=O)N[C@@H](CCN)C(=O)N1CCC[C@H]1C(=O)N[C@@H](Cc1cccc2[nH]ccc12)C(=O)N[C@H](C(=O)N[C@@H](CC(C)C)C(=O)O)C(C)(C)C [NT71] (H-[NMeR][Dab]P[Ala(indol-4-yl)][Tle]L-OH; N-terminus and C-terminus assumed)
- Kd (human NTR1): 1.8 ± 0.1 nM
- Kd (rat NTR1): 0.22 ± 0.03 nM

— US7098307B2, “Neo-tryptophan” (Mayo Foundation for Medical Education and Research, priority 1998, dated 2006)
